Measurements published in paper PMC9049863 (RSC Advances, 2020).

Tests used:
[1] = tested on: adult lymphoblastic leukemia T cells (Jurkat J16); assay: Cytotoxicity against Jurkat J16, resazurin reduction assay; type: cell-based; conditions: Homo sapiens, 72 h, read-out: IC50, cell viability, Jurkat J16
[2] = tested on: Burkitt's lymphoma B cells (Ramos); assay: Cytotoxicity against Ramos, resazurin reduction assay; type: cell-based; conditions: Homo sapiens, 72 h, read-out: IC50, cell viability, Ramos

CN[C@@H]1C[C@H]2O[C@@](C)([C@@H]1OC)n1c3ccccc3c3c4c(c5c6ccccc6n2c5c31)C(=O)NC4 [Staurosporine]
IC50 [1]: 2500 nM
IC50 [2]: 2500 nM
